Measurements published in patent publication US20210238279A1 (Johns Hopkins, published 2021).
Results are given in words; binding and its absence hold for the method and conditions named. Some entries that bind do so weakly or less than the wild type. For some of these results: Tags and fused reporters may be left off the sequences shown.

What was measured:
[1] = molecular target: T1, endogenous human ZnT8 in EndoC-βH cells (human) (UniProt Q8IWU4); assay: immunoblot of EndoC-βH lysate
T1 sequence (looked up): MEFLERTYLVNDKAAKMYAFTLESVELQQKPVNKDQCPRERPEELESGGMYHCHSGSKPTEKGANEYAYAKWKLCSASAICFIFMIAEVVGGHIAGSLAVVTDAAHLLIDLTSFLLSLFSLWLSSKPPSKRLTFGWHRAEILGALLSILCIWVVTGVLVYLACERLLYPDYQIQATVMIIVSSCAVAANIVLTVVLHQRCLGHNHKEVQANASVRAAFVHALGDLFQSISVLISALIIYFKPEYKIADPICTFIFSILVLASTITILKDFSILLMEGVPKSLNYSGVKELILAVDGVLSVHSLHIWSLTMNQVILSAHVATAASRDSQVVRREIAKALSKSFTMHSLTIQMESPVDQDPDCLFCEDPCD

[2] = molecular target: T2, human ZnT8 over-expressed in HEK293 cells (human) (UniProt Q8IWU4); assay: discussion of the flow cytometry result
T2 sequence (looked up): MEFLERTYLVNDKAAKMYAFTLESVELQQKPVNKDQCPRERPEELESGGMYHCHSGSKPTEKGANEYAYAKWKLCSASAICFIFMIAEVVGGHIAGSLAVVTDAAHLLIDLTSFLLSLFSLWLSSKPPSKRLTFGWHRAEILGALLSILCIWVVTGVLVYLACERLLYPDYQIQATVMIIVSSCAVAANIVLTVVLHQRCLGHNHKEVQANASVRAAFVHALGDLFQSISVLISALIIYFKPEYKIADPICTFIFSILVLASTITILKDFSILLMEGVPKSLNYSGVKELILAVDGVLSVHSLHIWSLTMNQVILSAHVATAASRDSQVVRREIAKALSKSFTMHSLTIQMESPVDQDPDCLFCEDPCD

[3] = molecular target: T1, endogenous human ZnT8 in EndoC-βH cells (human); assay: immunoblot of EndoC-betaH cell lysate
[4] = molecular target: T3, human ZnT8 with C-terminal FLAG tag (human) (UniProt Q8IWU4); assay: immunoblot of HEK293 lysates over-expressing FLAG-tagged ZnT homologs
T3 sequence (looked up): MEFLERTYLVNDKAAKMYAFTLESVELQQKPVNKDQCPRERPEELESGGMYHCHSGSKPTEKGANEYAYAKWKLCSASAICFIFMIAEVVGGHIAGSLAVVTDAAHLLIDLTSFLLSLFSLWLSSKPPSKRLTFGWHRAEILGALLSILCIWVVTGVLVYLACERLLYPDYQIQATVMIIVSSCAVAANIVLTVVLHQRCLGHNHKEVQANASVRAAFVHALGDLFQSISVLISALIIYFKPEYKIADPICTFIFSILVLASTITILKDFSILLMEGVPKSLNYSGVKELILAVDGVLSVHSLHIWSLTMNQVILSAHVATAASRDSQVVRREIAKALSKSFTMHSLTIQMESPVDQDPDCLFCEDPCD

[5] = molecular target: T2, human ZnT8 over-expressed in HEK293 cells (human); assay: immunofluorescence, confocal microscopy of fixed and permeabilized HEK293 cells
[6] = molecular target: T2, human ZnT8 over-expressed in HEK293 cells (human); assay: flow cytometry of fixed and permeabilized HEK293 cells, serial dilutions of the antibody
[7] = molecular target: T2, human ZnT8 over-expressed in HEK293 cells (human); assay: flow cytometry of fixed and permeabilized HEK293 cells, mean fluorescence against antibody concentration
[8] = molecular target: T2, human ZnT8 over-expressed in HEK293 cells (human); assay: confocal immunofluorescence on fixed, permeabilized HEK293 cells stably expressing human ZnT8; no staining of parental cells
[9] = molecular target: T2, human ZnT8 over-expressed in HEK293 cells (human); assay: HTRF, terbium cryptate-mAb20 and d2-mAb39 on lysates of HEK293 cells over-expressing human ZnT8; linear response up to 50 ng/mL
[10] = molecular target: T2, human ZnT8 over-expressed in HEK293 cells (human); assay: HTRF (FRET) between terbium-cryptate mAb20 and d2-labelled mAb39 bound to the same ZnT8, dilutions of cell lysate; the ZnT8 concentration is varied

Measured: binding

B1: mAb20 (antibody, V domains shown)
VH: QIQLVQSGPELKKPGETVKISCKASGYIFTNYPMHWVKQAPGKGLKWMGWINTYSGVPTHADDFKGRFAFSLETSANSAFLQINNLKNEDTATYFCTRSRITPTGGYAMDYWGQGTSVTVSS
VL: DVVMTQTPLSLPVSLGDQASISCRSSQSLVHSNGNTYLHWYLQKPGQSPNLLISKVSNRFSGVPERFSGSGSGTDFTLKISRVEAEDLGVYFCSQNTHVPWTFGGGTKLEIKR
notes: Mouse hybridoma mAb purified on protein A/G; In some assays it was labelled with Alexa Fluor 488 or terbium cryptate; also called monoclonal antibody mAb20; anti-ZnT8 mAb20
binds: all assays above
